From patent publication US20050129614A1
These are yes or no findings as the source states them, for the method shown. Some binding calls cover weakened binding; strength is not graded here.

By UniProt entry, the sequences of proteins in these tests, tags left out. Where a name states a change or a piece, a line headed by the entry shows the natural chain unless it says otherwise.
UniProt O43557: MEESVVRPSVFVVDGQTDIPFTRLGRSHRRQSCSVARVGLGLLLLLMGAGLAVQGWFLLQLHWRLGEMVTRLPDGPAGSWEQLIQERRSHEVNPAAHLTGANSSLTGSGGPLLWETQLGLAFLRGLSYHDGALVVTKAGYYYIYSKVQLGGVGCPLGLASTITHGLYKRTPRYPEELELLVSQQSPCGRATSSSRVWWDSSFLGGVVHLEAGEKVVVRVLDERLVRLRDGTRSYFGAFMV

Tests used:
TL5 polypeptide (human) [1] = target: TL5 polypeptide (human) (UniProt O43557); assay: phage display selection of scFvs (table title)
TL5 polypeptide (human) [2] = target: TL5 polypeptide (human) (UniProt O43557); assay: phage display selection of scFvs

B1: L006C05 scFv (scFv)
scFv: QVQLQQSGAEVKKPGASVKVSCKASGYTFTSYYMHWVRQAPGQGLEWMGIINPSGGSTTYAQNFQGRVTMTRDTSTSTVYMELSSLRSEDTAVYYCARGVGAGNWFDPWGKGTMVTVSSGGGGSGGGGSGGGGSQSVLTQPASVSGSPGQSITISCTGTSSDVGGYNYVSWYQQHPGKAPELMIYEGSKRPSGVSNRFSGSKSGNTASLTISGLQAEDEADYYCSSYTTRSTRVFGGGTKLTVLG
binding (TL5 polypeptide (human) [1]): binds
binding (TL5 polypeptide (human) [2]): binds
